The source of these data is US20100119526A1.

By UniProt entry, the sequences of proteins in these tests, tags left out. Where a name states a change or a piece, a line headed by the entry shows the natural chain unless it says otherwise. Residues count along the entry.
UniProt Q07008, residues 19-488: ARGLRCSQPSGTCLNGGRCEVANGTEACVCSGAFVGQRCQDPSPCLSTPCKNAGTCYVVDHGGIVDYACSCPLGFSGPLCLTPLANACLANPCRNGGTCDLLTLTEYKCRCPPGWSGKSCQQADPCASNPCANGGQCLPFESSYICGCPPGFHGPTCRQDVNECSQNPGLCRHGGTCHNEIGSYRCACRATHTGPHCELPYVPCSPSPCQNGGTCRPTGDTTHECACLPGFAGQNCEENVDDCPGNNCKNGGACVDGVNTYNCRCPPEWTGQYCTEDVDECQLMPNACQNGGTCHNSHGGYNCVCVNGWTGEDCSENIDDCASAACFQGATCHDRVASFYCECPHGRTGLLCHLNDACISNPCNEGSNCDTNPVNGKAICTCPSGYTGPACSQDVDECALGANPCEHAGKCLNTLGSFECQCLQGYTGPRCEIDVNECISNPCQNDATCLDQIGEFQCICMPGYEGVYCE
UniProt Q9NR61: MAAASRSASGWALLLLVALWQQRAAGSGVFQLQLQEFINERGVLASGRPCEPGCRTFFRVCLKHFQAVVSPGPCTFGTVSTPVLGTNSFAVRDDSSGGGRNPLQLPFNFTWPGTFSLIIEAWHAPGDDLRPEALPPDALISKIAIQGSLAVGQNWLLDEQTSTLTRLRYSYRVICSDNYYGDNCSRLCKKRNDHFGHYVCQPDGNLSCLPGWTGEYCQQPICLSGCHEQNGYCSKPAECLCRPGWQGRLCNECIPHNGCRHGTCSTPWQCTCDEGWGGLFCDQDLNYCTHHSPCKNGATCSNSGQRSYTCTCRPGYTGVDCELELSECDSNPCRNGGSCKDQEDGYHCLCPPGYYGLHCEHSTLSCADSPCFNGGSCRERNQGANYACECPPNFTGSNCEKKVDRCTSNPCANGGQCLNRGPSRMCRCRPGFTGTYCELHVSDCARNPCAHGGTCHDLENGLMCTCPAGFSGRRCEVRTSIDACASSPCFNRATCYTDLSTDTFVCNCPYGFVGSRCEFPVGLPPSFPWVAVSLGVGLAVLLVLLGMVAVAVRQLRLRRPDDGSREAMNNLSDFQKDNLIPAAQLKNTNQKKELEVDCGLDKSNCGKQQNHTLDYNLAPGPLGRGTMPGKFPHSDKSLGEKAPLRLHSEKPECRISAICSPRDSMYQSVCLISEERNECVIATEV

For this experiment, the target named is recombinant rat Notch1-Fc (R&D Systems) (rat) (UniProt Q07008). The experiment in a line: ELISA: rrNotch1-Fc coated on the plate, bound DLL4-AP detected with PNPP substrate at OD 405 nm. (In general: In an ELISA, binding on a coated surface is turned into a signal by an enzyme label.)

No constants are given. Whether binding was seen depends on the method and setting. Some entries that bind do so weakly or less than the wild type.

With “DLL4-AP (amino acid 1-404 of DLL4 fused to human placenta alkaline phosphatase) (from UniProt Q9NR61 26-404; P05187 23-511) (ligand)”, the binding entry is recorded as “binds”.
